# Library screening results

Values are the deposited “Percent Effect”, in %. How 0% and 100% were set is not recorded. Most values in the screen are low, and negative values occur. This is an unselected part of the compounds tested.

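Viability assay of Plasmodium falciparum sporozoites; the read-out is not stated. The concentration is filed as 10 mM, unlikely as a test dose, so the dose is not known. Direction is inferred from retests: higher values go with lower viability. Strong results were mostly tested again. Of about 34,000 compounds tested this way, about 280 (0.84%) reached 50% or more in at least one test.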

Result for CC(CNC(=O)c1cnc[nH]1)Oc1ccccc1Br (stereo unspecified) was -11.1%.
Result for Cc1cnn(CCNCC(O)COc2cc(Cl)ccc2Cl)c1 (stereo unspecified) was 6.145%.
Result for O=C(c1n[nH]c(=O)c2ccccc12)N1CCCC1Cn1cccn1 (stereo unspecified) was 9.579%.
Result for O=C(O)C(F)(F)F.[H][C@]12CCN(C(=O)Cc3cccs3)C[C@@]1([H])OCCN(C)C2 was 7.536%.
Result for CN(Cc1cnn(C)c1)C(=O)NC1CCN(c2ncccn2)CC1 was -0.3271%.
Result for Cc1cc(C(=O)N2CCCC(c3noc(C)n3)C2)[nH]n1 (stereo unspecified) was 4.523%.
Result for O=C(c1ccncc1)N1CCCC(C2=Nc3ccccc3S(=O)(=O)N2)C1 (stereo unspecified) was 8.919%.
Result for O=C(NCCC1=CCCCC1)C1CCCN(c2ccc3nncn3n2)C1 (stereo unspecified) was -0.7277%.
Result for CCOc1ccccc1OC1CCN(C(=O)c2cnns2)CC1 was 12.07%.
Result for Cc1cc(Oc2ccc(NC(=O)C3CC3)cc2)cc(C2CCNCC2)n1.Cl was 10.84%.
Result for CCC(Nc1ccc(Oc2ccccc2OC)cc1)C(N)=O (stereo unspecified) was -5.673%.
Result for CCN1CCC2(CC1)CC(CC(=O)N(C)C)c1ccc(F)cc12 (stereo unspecified) was 17.38%.
Result for CCCC(C#N)NC(=O)c1cc(Br)c2c(c1)OCCO2 (stereo unspecified) was 7.756%.
Result for CCOCCN1CCN(CC(=O)N2CCC2)CC1CC (stereo unspecified) was 10.28%.
Result for CC1CN(C(=O)c2cccc(OCc3cscn3)c2)CCO1 (stereo unspecified) was 17.88%.
Result for Cc1nc(C)n(C2CCCN(C(=O)c3c(C)nn4cccnc34)C2)n1 (stereo unspecified) was 3.713%.
Result for CC(C)NC(=O)N1CCC(n2ccc(C(F)(F)F)n2)CC1 was -10.27%.
Result for O=C(c1ccncc1)N1CCC2(CC1)CCN(C(=O)c1cccnc1)C2 was 1.702%.
Result for CN(C)[C@@H]1CCN(C(=O)Cc2cccs2)[C@H]1Cc1cnn(C)c1.O=C(O)C(F)(F)F was -4.038%.

Once more, the final 2:

{"structure": "O=C(c1ccncc1)N1CCC2(CC1)CCN(C(=O)c1cccnc1)C2", "Percent Effect": 1.702}
{"structure": "CN(C)[C@@H]1CCN(C(=O)Cc2cccs2)[C@H]1Cc1cnn(C)c1.O=C(O)C(F)(F)F", "Percent Effect": -4.038}

Measurements from “University of Dundee, Small-Polar-MMV Screening Library” (2021), ChEMBL document CHEMBL3988442.